Some of the results follow.
What was measured:
Experiment in all cases: log2 fold change, soluble protein after heating vs DMSO (PISA); higher = thermal stabilisation; K562 lysate, 10 uM; active = over 0.2 and 3.5 SD of the protein, either way, in both replicates (recomputed)
erlotinib = compound: C#Cc1cccc(Nc2ncnc3cc(OCCOC)c(OCCOC)cc23)c1 [erlotinib]
In short: (§1)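 Log-two fold change in thermal stability relative to solvent controls is reported from duplicates. For each sample, crude K562 extract from dounce-homogenised pellets in PBS pH 7.4 with 1 mM MgCl2, at 1 mg/mL protein, was treated with 10 μM compound for 30 min. Aliquots heated for 3 min across 48°C-58°C were pooled, brought to 0.5% NP-40 at 4°C and cleared at 21,000xg for 90 min. The supernatant was quantified by TMTpro 16plex LC-MS/MS with channel sums equalised.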

Sequences of proteins named here, by UniProt entry; tags and fusion partners are left off. A change or cut given only in a name is not applied to a line headed by its entry.
UniProt P22087: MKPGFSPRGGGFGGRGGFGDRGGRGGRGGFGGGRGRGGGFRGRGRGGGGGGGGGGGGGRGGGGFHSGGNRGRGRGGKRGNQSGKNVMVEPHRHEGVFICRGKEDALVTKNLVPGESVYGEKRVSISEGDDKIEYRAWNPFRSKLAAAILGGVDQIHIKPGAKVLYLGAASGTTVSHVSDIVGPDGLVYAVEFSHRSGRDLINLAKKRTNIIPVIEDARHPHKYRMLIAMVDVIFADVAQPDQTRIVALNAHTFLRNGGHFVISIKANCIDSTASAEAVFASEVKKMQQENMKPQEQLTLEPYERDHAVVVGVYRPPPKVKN
UniProt Q658Y4: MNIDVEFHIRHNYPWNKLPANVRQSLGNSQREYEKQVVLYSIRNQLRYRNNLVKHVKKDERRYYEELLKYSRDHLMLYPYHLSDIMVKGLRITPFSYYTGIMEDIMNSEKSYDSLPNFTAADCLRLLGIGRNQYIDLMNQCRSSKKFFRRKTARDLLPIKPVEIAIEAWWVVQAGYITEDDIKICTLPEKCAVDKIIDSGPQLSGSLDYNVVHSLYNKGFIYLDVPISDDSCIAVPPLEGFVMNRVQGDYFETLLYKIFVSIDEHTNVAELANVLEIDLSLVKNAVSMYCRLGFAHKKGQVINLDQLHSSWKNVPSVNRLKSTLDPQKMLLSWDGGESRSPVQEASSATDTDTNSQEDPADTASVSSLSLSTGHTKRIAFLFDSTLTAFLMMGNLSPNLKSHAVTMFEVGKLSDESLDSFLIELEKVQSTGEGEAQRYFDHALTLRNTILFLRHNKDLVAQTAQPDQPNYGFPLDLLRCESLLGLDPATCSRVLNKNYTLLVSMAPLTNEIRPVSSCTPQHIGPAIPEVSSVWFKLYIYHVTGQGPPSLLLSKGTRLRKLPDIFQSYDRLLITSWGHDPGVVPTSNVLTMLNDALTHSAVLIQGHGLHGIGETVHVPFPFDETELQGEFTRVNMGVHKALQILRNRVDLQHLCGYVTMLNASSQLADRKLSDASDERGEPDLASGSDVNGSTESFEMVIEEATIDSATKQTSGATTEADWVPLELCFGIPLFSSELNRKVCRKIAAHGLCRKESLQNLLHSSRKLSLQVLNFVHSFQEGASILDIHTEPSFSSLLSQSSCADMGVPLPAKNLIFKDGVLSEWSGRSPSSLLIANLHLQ
UniProt Q9BXW9: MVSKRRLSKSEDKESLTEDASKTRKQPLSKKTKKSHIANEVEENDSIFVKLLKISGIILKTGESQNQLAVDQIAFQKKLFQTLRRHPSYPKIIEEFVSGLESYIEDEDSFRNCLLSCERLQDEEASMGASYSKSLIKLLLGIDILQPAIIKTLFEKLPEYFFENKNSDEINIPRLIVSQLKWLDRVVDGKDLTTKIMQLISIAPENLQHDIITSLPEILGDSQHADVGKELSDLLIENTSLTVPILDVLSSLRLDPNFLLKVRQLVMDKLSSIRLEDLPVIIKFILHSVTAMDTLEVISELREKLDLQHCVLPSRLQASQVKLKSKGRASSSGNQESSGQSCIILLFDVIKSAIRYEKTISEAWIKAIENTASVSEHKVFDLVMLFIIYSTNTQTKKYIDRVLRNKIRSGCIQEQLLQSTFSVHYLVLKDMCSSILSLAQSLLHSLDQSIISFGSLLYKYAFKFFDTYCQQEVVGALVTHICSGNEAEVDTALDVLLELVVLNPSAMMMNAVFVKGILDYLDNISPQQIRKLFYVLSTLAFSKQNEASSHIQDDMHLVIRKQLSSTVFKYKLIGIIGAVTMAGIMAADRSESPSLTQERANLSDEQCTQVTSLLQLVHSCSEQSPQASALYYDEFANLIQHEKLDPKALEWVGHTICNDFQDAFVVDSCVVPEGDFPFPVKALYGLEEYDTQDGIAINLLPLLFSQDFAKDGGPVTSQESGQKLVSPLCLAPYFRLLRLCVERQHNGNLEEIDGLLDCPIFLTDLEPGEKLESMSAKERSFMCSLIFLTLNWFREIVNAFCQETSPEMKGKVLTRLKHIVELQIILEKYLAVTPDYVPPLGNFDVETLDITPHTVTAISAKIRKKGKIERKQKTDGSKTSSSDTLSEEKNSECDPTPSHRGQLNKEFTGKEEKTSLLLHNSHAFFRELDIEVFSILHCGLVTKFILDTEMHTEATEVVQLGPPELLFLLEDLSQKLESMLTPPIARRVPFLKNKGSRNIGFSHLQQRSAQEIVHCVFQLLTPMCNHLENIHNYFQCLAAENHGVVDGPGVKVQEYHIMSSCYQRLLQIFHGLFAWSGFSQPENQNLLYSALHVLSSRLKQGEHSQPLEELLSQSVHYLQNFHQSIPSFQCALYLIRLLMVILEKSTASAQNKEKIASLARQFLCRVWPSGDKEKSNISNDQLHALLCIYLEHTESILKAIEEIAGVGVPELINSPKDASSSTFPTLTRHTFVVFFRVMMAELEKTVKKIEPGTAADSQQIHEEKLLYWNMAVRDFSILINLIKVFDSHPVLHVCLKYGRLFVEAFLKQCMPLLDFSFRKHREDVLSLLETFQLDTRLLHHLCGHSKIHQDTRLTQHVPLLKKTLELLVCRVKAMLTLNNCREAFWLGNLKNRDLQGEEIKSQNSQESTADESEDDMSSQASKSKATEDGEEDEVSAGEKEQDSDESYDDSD
UniProt Q9Y285: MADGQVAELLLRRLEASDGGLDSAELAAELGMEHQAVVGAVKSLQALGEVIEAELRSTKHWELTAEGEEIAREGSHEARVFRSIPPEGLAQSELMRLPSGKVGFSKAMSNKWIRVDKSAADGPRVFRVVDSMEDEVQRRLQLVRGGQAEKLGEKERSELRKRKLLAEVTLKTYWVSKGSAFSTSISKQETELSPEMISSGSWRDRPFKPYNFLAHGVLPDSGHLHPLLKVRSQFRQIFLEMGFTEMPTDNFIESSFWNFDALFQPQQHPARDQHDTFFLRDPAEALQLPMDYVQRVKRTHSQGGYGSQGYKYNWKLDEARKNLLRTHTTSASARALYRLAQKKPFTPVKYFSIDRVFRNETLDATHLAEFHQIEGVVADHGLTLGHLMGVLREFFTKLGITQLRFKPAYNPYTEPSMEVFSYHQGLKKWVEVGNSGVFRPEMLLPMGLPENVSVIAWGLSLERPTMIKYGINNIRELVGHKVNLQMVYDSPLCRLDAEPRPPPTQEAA
UniProt Q9UHY8: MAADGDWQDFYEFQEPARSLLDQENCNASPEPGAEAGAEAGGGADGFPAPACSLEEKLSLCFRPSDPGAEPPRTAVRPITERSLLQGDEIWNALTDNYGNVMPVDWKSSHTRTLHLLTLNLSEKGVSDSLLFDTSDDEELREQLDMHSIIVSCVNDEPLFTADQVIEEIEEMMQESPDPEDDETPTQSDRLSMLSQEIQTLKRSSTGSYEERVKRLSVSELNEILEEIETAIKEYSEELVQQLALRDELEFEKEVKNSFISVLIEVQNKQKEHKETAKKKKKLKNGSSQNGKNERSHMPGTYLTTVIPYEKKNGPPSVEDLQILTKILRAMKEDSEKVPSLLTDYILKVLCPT
UniProt Q9UK22: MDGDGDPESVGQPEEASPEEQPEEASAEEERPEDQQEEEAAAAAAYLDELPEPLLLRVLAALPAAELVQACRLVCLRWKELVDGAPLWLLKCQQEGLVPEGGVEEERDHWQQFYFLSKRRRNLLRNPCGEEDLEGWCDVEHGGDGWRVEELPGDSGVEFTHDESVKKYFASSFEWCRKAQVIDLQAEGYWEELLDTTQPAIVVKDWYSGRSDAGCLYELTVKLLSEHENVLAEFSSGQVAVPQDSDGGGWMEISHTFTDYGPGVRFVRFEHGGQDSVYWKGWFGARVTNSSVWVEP
UniProt Q96AC1: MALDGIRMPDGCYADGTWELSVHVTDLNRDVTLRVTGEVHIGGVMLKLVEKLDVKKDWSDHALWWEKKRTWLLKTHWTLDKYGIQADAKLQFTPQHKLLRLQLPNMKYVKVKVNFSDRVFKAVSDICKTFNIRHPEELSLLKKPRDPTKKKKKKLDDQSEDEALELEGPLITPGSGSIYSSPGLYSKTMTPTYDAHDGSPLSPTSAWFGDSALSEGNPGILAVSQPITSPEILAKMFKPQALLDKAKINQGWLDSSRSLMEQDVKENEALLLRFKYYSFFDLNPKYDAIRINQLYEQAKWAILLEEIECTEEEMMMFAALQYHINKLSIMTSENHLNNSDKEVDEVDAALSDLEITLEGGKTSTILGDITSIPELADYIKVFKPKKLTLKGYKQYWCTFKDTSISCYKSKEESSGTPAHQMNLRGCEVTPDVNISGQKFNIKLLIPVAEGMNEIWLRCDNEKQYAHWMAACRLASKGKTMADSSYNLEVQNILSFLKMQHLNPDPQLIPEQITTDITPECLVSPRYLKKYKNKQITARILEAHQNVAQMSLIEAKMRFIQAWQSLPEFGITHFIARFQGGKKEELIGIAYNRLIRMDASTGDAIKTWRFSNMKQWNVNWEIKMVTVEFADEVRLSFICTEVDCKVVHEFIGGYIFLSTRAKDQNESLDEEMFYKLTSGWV
UniProt Q52LJ0: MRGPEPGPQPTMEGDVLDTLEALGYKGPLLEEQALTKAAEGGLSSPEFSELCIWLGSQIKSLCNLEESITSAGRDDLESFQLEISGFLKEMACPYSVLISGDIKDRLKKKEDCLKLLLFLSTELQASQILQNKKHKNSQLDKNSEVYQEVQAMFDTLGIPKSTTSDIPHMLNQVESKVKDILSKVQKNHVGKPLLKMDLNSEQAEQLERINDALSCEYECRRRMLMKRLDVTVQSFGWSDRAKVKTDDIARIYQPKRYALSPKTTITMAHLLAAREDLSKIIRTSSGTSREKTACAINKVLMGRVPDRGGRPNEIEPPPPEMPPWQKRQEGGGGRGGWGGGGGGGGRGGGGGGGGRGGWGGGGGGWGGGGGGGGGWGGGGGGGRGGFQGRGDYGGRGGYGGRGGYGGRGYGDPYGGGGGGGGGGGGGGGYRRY
UniProt Q8N0W3: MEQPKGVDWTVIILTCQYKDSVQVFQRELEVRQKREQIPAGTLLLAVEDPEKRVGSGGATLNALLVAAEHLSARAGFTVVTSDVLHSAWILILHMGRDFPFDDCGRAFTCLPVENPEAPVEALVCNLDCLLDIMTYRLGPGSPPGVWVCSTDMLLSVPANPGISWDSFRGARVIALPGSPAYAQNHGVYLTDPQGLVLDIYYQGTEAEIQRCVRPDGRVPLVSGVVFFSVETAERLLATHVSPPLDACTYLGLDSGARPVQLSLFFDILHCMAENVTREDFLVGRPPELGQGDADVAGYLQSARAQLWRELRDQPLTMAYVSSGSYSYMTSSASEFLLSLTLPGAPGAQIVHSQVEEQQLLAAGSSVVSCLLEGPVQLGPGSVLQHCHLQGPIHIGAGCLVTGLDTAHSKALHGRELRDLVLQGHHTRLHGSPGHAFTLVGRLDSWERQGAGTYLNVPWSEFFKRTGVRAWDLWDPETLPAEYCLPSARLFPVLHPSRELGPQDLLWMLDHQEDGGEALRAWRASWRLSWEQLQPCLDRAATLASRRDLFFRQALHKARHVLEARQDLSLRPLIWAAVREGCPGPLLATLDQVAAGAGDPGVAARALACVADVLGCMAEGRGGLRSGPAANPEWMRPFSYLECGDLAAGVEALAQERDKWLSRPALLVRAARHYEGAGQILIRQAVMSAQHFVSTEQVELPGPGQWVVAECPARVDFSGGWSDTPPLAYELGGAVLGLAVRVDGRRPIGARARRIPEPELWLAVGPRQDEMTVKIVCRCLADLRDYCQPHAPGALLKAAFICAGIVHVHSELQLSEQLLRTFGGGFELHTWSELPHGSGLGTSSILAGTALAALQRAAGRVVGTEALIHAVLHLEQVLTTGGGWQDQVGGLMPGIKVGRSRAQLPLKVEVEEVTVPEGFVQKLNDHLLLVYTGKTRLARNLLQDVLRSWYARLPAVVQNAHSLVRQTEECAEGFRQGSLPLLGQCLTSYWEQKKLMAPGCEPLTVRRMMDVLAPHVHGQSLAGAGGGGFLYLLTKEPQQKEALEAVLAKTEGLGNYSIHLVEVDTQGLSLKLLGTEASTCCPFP
UniProt P62942, whole entry, looked up: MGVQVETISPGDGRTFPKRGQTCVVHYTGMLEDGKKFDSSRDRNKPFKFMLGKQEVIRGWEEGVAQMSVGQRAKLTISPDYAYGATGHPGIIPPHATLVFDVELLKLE
UniProt Q02790: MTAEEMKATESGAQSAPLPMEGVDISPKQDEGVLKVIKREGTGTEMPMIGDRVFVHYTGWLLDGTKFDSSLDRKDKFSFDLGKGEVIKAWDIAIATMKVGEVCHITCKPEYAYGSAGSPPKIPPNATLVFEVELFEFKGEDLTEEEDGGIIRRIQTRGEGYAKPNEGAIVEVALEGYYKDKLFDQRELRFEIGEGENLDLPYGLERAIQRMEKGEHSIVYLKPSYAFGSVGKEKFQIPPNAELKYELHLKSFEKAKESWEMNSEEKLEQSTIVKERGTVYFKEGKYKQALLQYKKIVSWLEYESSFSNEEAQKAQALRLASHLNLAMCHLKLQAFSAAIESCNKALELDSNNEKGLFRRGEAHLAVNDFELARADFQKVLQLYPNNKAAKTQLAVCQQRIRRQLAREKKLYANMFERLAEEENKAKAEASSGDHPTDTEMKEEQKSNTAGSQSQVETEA

[1] = compound: C/C(=N\NC(=O)C1=CC(=CC=C1)S(=O)(=O)N2CCOCC2)/C3=C(C=CC(=C3)Cl)O
In short: as §1

[2] = compound: C1=CC(=CC=C1C2=NC3=C(N2)C=C(C=C3)C(=O)N)OC4=CC=C(C=C4)Cl
In short: as §1

[3] = compound: C1=CC2=C(C=CC(=C2)/C=C\3/C(=O)NC(=NCC4=CC=CS4)S3)N=C1
In short: as §1

[4] = compound: C1=CC2=NC=CN=C2C=C1/C=C/3\C(=O)NC(=O)S3
In short: as §1

[5] = compound: C1=CC=C(C=C1)C2=NC(=C(N2)C3=CC=NC=C3)C4=CC(=C(C=C4)Cl)O
In short: as §1

[6] = compound: C1=CC=C2C(=C1)C3=NNC4=CC=CC(=C43)C2=O
In short: as §1

[7] = compound: C1CCN(C1)C(=O)NC2=CC=CC(=C2)NC3=NC=C(C(=N3)NCCC4=CN=CN4)Br
In short: as §1

[8] = compound: C1CN(CCC1(CC2=CC=C(C=C2)Cl)N)C3=NC=NC4=C3C=CN4
In short: as §1

IRAK-1-4 Inhibitor I = compound: C1COCCN1CCN2C3=CC=CC=C3N=C2NC(=O)C4=CC(=CC=C4)[N+](=O)[O-] [IRAK-1-4 Inhibitor I]
In short: as §1

ibrutinib = compound: C=CC(=O)N1CCC[C@@H](n2nc(-c3ccc(Oc4ccccc4)cc3)c3c(N)ncnc32)C1 [ibrutinib]
In short: as §1

[9] = compound: CC(=O)c1cnc2ccc(-c3cc(Cl)c(O)c(Cl)c3)nc2c1N[C@H]1CC[C@H](CN(C)C)CC1
In short: as §1

ralimetinib = compound: CC(C)(C)Cn1c(N)nc2ccc(-c3[nH]c(C(C)(C)C)nc3-c3ccc(F)cc3)nc21 [ralimetinib]
In short: as §1

[10] = compound: CC(C)(O)CC(=O)NCCn1ccc2ncnc(Nc3ccc(Oc4cccc(C(F)(F)F)c4)c(Cl)c3)c21
In short: as §1

[11] = compound: CC(C)C1=C2N=C(C=C(N2N=C1)NCC3=CC=CC=C3)NCCCCCCN
In short: as §1

[12] = compound: CC1=C(C(CC(=O)N1)C2=CC=C(C=C2)C(F)(F)F)C(=O)NC3=C(C=C4C(=C3)C=NN4)F
In short: as §1

[13] = compound: CC1=C(C2=C(C=C1)C(=O)C3=CC=CC=C3N2CCCN)C
In short: as §1

[14] = compound: CC1=C(C=C(C=C1)NC(=O)C2=CC(=CC=C2)C(C)(C)C#N)NC3=CC4=C(C=C3)N=CN(C4=O)C
In short: as §1

[15] = compound: CC1=C(C=C(C=C1)NC(=O)C2=CC(=CC=C2)N(C)C)NC(=O)C3=CC=C(C=C3)O
In short: as §1

[16] = compound: CC1=CC=C(C=C1)SC2=C3C=C(SC3=CN=C2)C(=O)N
In short: as §1

Measured: log2 fold change

FBL (UniProt P22087)
inactive: erlotinib 0 | [1] -0.014 | [2] 0.002 | [3] 0.018 | [4] -0.022 | [5] -0.002 | [6] -0.006 | [7] -0.017 | [8] -0.035 | IRAK-1-4 Inhibitor I -0.041 | ibrutinib -0.018 | [9] -0.019 | ralimetinib -0.003 | [10] -0.009 | [11] 0.041 | [12] -0.056 | [13] -0.048 | [14] 0.01 | [15] 0.053 | [16] -0.004

FAM91A1 (UniProt Q658Y4)
inactive: erlotinib 0.006 | [1] 0.001 | [2] 0.033 | [3] 0.024 | [4] 0.058 | [5] -0.023 | [6] 0.054 | [7] 0.01 | [8] 0.001 | IRAK-1-4 Inhibitor I 0.023 | ibrutinib 0.016 | [9] 0.003 | ralimetinib 0.022 | [10] -0.018 | [11] -0.011 | [12] -0.014 | [13] 0.009 | [14] 0.003 | [15] -0.04 | [16] 0

FANCD2 isoform 1 (UniProt Q9BXW9)
inactive: erlotinib 0.059 | [1] 0.002 | [2] 0.019 | [3] -0.049 | [4] 0.01 | [5] 0.006 | [6] -0.092 | [7] -0.062 | [8] 0.095 | IRAK-1-4 Inhibitor I 0.036 | ibrutinib 0.01 | [9] -0.009 | ralimetinib 0 | [10] -0.066 | [11] 0.048 | [12] -0.02 | [13] -0.068 | [14] 0.071 | [15] 0.011 | [16] -0.008

FARSA (UniProt Q9Y285)
inactive: erlotinib 0.045 | [1] -0.001 | [2] -0.054 | [3] 0.009 | [4] 0 | [5] 0.119 | [6] -0.005 | [7] 0.009 | [8] -0.023 | IRAK-1-4 Inhibitor I -0.018 | ibrutinib -0.006 | [9] -0.02 | ralimetinib 0.048 | [10] 0.025 | [11] 0.06 | [12] -0.014 | [13] -0.063 | [14] 0.055 | [15] 0 | [16] 0.006

FEZ2 isoform 2 (UniProt Q9UHY8)
inactive: erlotinib 0.015 | [1] 0.099 | [2] 0.021 | [3] 0.046 | [4] -0.017 | [5] 0.029 | [6] -0.024 | [7] 0.006 | [8] 0.048 | IRAK-1-4 Inhibitor I 0.024 | ibrutinib -0.021 | [9] 0.043 | ralimetinib 0.009 | [10] -0.073 | [11] 0.001 | [12] -0.038 | [13] -0.034 | [14] 0.055 | [15] 0.006 | [16] -0.043

FBXO2 (UniProt Q9UK22)
inactive: erlotinib -0.012 | [1] -0.092 | [2] 0.051 | [3] -0.13 | [4] -0.085 | [5] -0.018 | [6] 0.056 | [7] 0.002 | [8] 0.02 | IRAK-1-4 Inhibitor I -0.122 | ibrutinib 0.033 | [9] -0.026 | ralimetinib 0.029 | [10] 0.105 | [11] -0.108 | [12] -0.087 | [13] -0.006 | [14] 0.065 | [15] -0.082 | [16] -0.017

Two entries picked at random from the list so far, as already listed:
FEZ2 isoform 2 (UniProt Q9UHY8)
inactive: erlotinib 0.015 | [1] 0.099 | [2] 0.021 | [3] 0.046 | [4] -0.017 | [5] 0.029 | [6] -0.024 | [7] 0.006 | [8] 0.048 | IRAK-1-4 Inhibitor I 0.024 | ibrutinib -0.021 | [9] 0.043 | ralimetinib 0.009 | [10] -0.073 | [11] 0.001 | [12] -0.038 | [13] -0.034 | [14] 0.055 | [15] 0.006 | [16] -0.043

FBXO2 (UniProt Q9UK22)
inactive: erlotinib -0.012 | [1] -0.092 | [2] 0.051 | [3] -0.13 | [4] -0.085 | [5] -0.018 | [6] 0.056 | [7] 0.002 | [8] 0.02 | IRAK-1-4 Inhibitor I -0.122 | ibrutinib 0.033 | [9] -0.026 | ralimetinib 0.029 | [10] 0.105 | [11] -0.108 | [12] -0.087 | [13] -0.006 | [14] 0.065 | [15] -0.082 | [16] -0.017

Later entries:

FARSB (UniProt Q9NSD9)
inactive: erlotinib -0.004 | [1] 0.019 | [2] -0.007 | [3] -0.01 | [4] -0.02 | [5] 0.039 | [6] -0.021 | [7] -0.004 | [8] 0.011 | IRAK-1-4 Inhibitor I -0.027 | ibrutinib 0.021 | [9] -0.013 | ralimetinib -0.006 | [10] 0.016 | [11] 0.004 | [12] -0.023 | [13] 0.007 | [14] 0.033 | [15] 0.008 | [16] 0.03

FGFR1OP (UniProt O95684)
inactive: erlotinib 0.005 | [1] -0.072 | [2] 0.009 | [3] -0.012 | [4] 0.004 | [5] 0.01 | [6] 0.006 | [7] 0.035 | [8] 0.008 | IRAK-1-4 Inhibitor I 0.017 | ibrutinib 0.012 | [9] -0.006 | ralimetinib 0.022 | [10] -0.019 | [11] 0.002 | [12] 0.01 | [13] 0.015 | [14] -0.004 | [15] -0.011 | [16] -0.012

FAM89A (UniProt Q96GI7)
inactive: erlotinib -0.033 | [1] 0.038 | [2] 0.005 | [3] 0.002 | [4] -0.057 | [5] 0.036 | [6] -0.046 | [7] 0.059 | [8] -0.001 | IRAK-1-4 Inhibitor I 0.073 | ibrutinib -0.022 | [9] -0.007 | ralimetinib -0.032 | [10] -0.014 | [11] 0.029 | [12] 0.025 | [13] -0.01 | [14] 0.067 | [15] -0.069 | [16] -0.107

FERMT2 isoform 3 (UniProt Q96AC1)
inactive: erlotinib -0.01 | [1] 0.063 | [2] -0.046 | [3] 0.008 | [4] 0.014 | [5] -0.051 | [6] 0.026 | [7] 0.023 | [8] 0.02 | IRAK-1-4 Inhibitor I 0.006 | ibrutinib 0.027 | [9] -0.004 | ralimetinib 0.006 | [10] -0.007 | [11] 0.051 | [12] -0.059 | [13] -0.037 | [14] 0.019 | [15] 0.007 | [16] -0.055

FANCB (UniProt Q8NB91)
inactive: erlotinib -0.023 | [1] -0.059 | [2] 0.039 | [3] -0.115 | [4] 0.042 | [5] -0.044 | [6] -0.075 | [7] 0.028 | [8] 0.013 | IRAK-1-4 Inhibitor I 0.031 | ibrutinib 0.027 | [9] 0.06 | ralimetinib 0.026 | [10] 0.012 | [11] 0.02 | [12] -0.106 | [13] -0.031 | [14] 0.005 | [15] -0.007 | [16] -0.029

FAM98B (UniProt Q52LJ0)
inactive: erlotinib 0.033 | [1] -0.02 | [2] 0.029 | [3] 0.007 | [4] 0.007 | [5] 0.011 | [6] -0.057 | [7] -0.058 | [8] 0.015 | IRAK-1-4 Inhibitor I -0.012 | ibrutinib -0.003 | [9] 0.013 | ralimetinib 0.036 | [10] -0.024 | [11] 0.008 | [12] -0.037 | [13] 0.016 | [14] 0.023 | [15] 0.033 | [16] -0.025

FCSK (UniProt Q8N0W3)
inactive: erlotinib -0.008 | [1] -0.015 | [2] 0.028 | [3] 0.017 | [4] -0.007 | [5] -0.026 | [6] -0.019 | [7] -0.082 | [8] -0.012 | IRAK-1-4 Inhibitor I 0.022 | ibrutinib 0.056 | [9] -0.012 | ralimetinib 0.019 | [10] -0.028 | [11] -0.026 | [12] -0.016 | [13] -0.008 | [14] 0.011 | [15] 0.003 | [16] -0.013

FKBP1A (UniProt P62942)
inactive: erlotinib -0.024 | [1] 0.063 | [2] 0.015 | [3] -0.061 | [4] 0 | [5] 0.024 | [6] 0.091 | [7] -0.044 | [8] 0.062 | IRAK-1-4 Inhibitor I 0.071 | ibrutinib 0.083 | [9] -0.103 | ralimetinib 0.188 | [10] -0.054 | [11] 0.049 | [12] -0.022 | [13] -0.013 | [14] 0.084 | [15] 0.018 | [16] 0.187

FKBP4 (UniProt Q02790)
inactive: erlotinib -0.014 | [1] 0.04 | [2] -0.018 | [3] 0.002 | [4] -0.007 | [5] 0.004 | [6] 0.028 | [7] 0.002 | [8] 0.011 | IRAK-1-4 Inhibitor I -0.003 | ibrutinib -0.017 | [9] -0.011 | ralimetinib 0.004 | [10] 0 | [11] -0.01 | [12] -0.012 | [13] 0.027 | [14] -0.011 | [15] -0.009 | [16] 0.005

Reference: the supplement of paper PMC10849652
